These are yes or no findings as the source states them, for the method shown. In cells and extracts the contact can be indirect. Some results given as binding are weak or reduced against the parent protein; the word gives no strength. For some of these results: Sequences can lack the tags named with a protein.

The target in test [1] is T1, Flag-tagged USP22 (ubiquitin-specific protease 22) (human) (UniProt Q9UPT9).
T1 sequence: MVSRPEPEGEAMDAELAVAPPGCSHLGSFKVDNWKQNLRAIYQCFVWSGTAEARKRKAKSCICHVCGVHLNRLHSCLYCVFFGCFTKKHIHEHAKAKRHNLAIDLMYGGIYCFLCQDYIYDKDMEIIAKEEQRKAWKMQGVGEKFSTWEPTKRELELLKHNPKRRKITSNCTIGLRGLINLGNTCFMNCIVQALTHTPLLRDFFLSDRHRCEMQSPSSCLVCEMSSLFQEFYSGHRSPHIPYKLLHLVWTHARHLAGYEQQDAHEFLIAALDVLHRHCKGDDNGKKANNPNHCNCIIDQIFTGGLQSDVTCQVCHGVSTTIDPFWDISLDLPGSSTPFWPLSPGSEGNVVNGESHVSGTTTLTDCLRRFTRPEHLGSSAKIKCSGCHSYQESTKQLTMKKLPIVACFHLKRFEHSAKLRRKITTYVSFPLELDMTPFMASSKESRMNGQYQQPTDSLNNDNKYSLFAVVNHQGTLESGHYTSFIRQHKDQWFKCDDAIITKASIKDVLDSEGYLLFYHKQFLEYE
Description: co-IP; A549-USP22 cell lysates immunoprecipitated with anti-Flag or anti-MDMX antibody; immunoblot with anti-Flag, anti-MDMX, anti-USP22; isotype control antibody and PBS as controls. Background: Immunoblotting shows a protein as a band on a membrane.

For test [2], the target named is T2, USP22 (ubiquitin-specific protease 22), endogenous in NCl-H460 cells (human (endogenous in NCl-H460)) (UniProt Q9UPT9).
T2 sequence: T1 sequence
In words: co-IP; NCl-H460 cell lysates immunoprecipitated with anti-USP22 or anti-MDMX antibody; immunoblot; isotype control antibody and PBS as controls.

Test [3] addresses T3, MDMX, endogenous in A549-USP22 cells (human (endogenous in A549)) (UniProt O15151).
T3 sequence: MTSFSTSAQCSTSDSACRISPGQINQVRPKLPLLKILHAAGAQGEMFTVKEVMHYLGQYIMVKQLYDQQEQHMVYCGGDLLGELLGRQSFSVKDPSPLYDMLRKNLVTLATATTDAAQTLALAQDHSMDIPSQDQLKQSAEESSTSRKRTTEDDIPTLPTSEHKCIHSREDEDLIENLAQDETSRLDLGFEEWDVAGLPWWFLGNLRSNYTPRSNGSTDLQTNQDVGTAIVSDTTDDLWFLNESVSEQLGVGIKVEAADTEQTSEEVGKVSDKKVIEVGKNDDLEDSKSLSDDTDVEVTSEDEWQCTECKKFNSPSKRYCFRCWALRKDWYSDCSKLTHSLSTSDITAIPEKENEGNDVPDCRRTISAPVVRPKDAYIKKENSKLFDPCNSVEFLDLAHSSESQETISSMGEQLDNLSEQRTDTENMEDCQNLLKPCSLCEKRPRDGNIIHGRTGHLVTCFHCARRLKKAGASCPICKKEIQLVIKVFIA
Description: co-IP; A549-USP22 cell lysates immunoprecipitated with anti-Flag or anti-MDMX antibody; immunoblot with anti-Flag, anti-MDMX, anti-USP22; isotype control antibody and PBS as controls.

The target in test [4] is T4, MDMX, endogenous in NCl-H460 cells (human (endogenous in NCl-H460)) (UniProt O15151).
T4 sequence: T3 sequence
In words: co-IP; NCl-H460 cell lysates immunoprecipitated with anti-USP22 or anti-MDMX antibody; immunoblot; isotype control antibody and PBS as controls.

B1: MDMX, endogenous in A549-USP22 cells (protein, UniProt O15151 1-490)
chain: T3 sequence
As to B1, in test [1], the binding entry is “binds”.

B2: MDMX, endogenous in NCl-H460 cells (protein, UniProt O15151 1-490)
chain: T3 sequence
On to B2, for which the binding entry in test [2] is reported as “binds”.

B3: Flag-tagged USP22 (ubiquitin-specific protease 22) (enzyme, UniProt Q9UPT9 1-525)
chain: T1 sequence
For the molecule B3, in test [3], the binding result is recorded as “binds”.

B4: USP22 (ubiquitin-specific protease 22), endogenous in NCl-H460 cells (enzyme, UniProt Q9UPT9 1-525)
chain: T1 sequence
Take B4: the binding result in test [4] is “binds”.

Values taken from PMC4307248.
